Measurements reported in PubChem BioAssay AID720505 (Drosophila RNAi Screening Center, 2013).
The screen tested about 20,000 reagents; shown is a random part of those with a known target gene and a result. Over the whole deposit, about 2,100 (10%) were called active. 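Raw plate signals without normalisation; calls rest on control-based scores that were not deposited; replicate 2 separates called from uncalled poorly.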 Reagents against one gene are numbered here. A plus sign joins genes that one reagent is predicted to hit. The record does not give: the amount of reagent, the time to read-out.

Aim: 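Fly regulators or components of the CRAC channel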 (primary screen)
Cell system: Drosophila S2R+ cells
Reagent: long dsRNA against Drosophila genes
Challenge: thapsigargin (2 µM) in calcium-free buffer to empty internal stores, then 2 mM calcium added back
Measured: 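Fluo-4 signal in 384-well plates read on a FLIPR after thapsigargin (2 µM, calcium-free) store depletion and 2 mM calcium add-back; unnormalised mean endpoint per well; screen run twice, selected wells retested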
Reading the numbers: calcium signal and retest calcium signal: higher = more calcium entry after store depletion
Active means: 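About 1500 genes called as lowering calcium entry, by varying amounts, judged against per-plate control wells with STIM1 as positive and Rho1 as negative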
Meaning of the calls: active = called as lowering calcium entry; inactive = not called

CG1827 → calcium signal, replicate 1: 125; calcium signal, replicate 2: 125; outcome: inactive
CG6709 + Hez #1 → calcium signal, replicate 1: 106; calcium signal, replicate 2: 82.2; outcome: inactive
CG6709 + Hez #2 → calcium signal, replicate 1: 129; calcium signal, replicate 2: 106; outcome: inactive
sut1 → calcium signal, replicate 1: 245; calcium signal, replicate 2: 114; outcome: inactive
Vsx1 #1 → calcium signal, replicate 1: 76.4; calcium signal, replicate 2: 119; retest calcium signal, replicate 1: 126; retest calcium signal, replicate 2: 4167; outcome: active
Vsx1 #2 → calcium signal, replicate 1: 169; calcium signal, replicate 2: 157; outcome: inactive
Vsx1 #3 → calcium signal, replicate 1: 114; calcium signal, replicate 2: 129; outcome: inactive
Deaf1 #1 → calcium signal, replicate 1: 85.9; calcium signal, replicate 2: 192; retest calcium signal, replicate 1: 5930; retest calcium signal, replicate 2: 133; outcome: inactive
Deaf1 #2 → calcium signal, replicate 1: 136; calcium signal, replicate 2: 165; outcome: inactive
Patr-1 → calcium signal, replicate 1: 157; calcium signal, replicate 2: 293; outcome: inactive
LysS → calcium signal, replicate 1: 65.4; calcium signal, replicate 2: 111; outcome: inactive
Ir60a → calcium signal, replicate 1: 93.6; calcium signal, replicate 2: 248; outcome: inactive
CG43102 #1 → calcium signal, replicate 1: 104; calcium signal, replicate 2: 140; retest calcium signal, replicate 1: 97.6; retest calcium signal, replicate 2: 77.9; outcome: inactive
CG43102 #2 → calcium signal, replicate 1: 66; calcium signal, replicate 2: 91.4; outcome: active
CG43132 (retired record) → calcium signal, replicate 1: 90.9; calcium signal, replicate 2: 165; outcome: inactive
CG10918 → calcium signal, replicate 1: 66.8; calcium signal, replicate 2: 103; outcome: active
Gyc88E → calcium signal, replicate 1: 96.9; calcium signal, replicate 2: 196; outcome: inactive
spz3 #1 → calcium signal, replicate 1: 101; calcium signal, replicate 2: 174; outcome: inactive
spz3 #2 → calcium signal, replicate 1: 88; calcium signal, replicate 2: 131; outcome: inactive
Srlp → calcium signal, replicate 1: 80.6; calcium signal, replicate 2: 104; outcome: active
Pi3K21B → calcium signal, replicate 1: 77.7; calcium signal, replicate 2: 189; outcome: inactive
Cyp313a5 → calcium signal, replicate 1: 113; calcium signal, replicate 2: 98.2; outcome: inactive
Stam → calcium signal, replicate 1: 71; calcium signal, replicate 2: 110; outcome: inactive
PGRP-SC1b → calcium signal, replicate 1: 208; calcium signal, replicate 2: 213; outcome: inactive
Ret #1 → calcium signal, replicate 1: 115; calcium signal, replicate 2: 114; outcome: inactive
Ret #2 → calcium signal, replicate 1: 150; calcium signal, replicate 2: 73.3; outcome: inactive
2mit #1 → calcium signal, replicate 1: 103; calcium signal, replicate 2: 127; outcome: inactive
2mit #2 → calcium signal, replicate 1: 116; calcium signal, replicate 2: 119; outcome: inactive

2 successive entries from above, quoted:
CG6709 + Hez #2 → calcium signal, replicate 1: 129; calcium signal, replicate 2: 106; outcome: inactive
sut1 → calcium signal, replicate 1: 245; calcium signal, replicate 2: 114; outcome: inactive
